According to US20130017550A1:
These are yes or no findings as the source states them, for the method shown. In cells and extracts the contact can be indirect. Some binding calls cover weakened binding; strength is not graded here.

Protein sequences, listed by entry. Tags and fused reporters are not part of them. Lines headed by an entry give the natural chain unless they say otherwise; changes in a name come on top.
UniProt Q02111: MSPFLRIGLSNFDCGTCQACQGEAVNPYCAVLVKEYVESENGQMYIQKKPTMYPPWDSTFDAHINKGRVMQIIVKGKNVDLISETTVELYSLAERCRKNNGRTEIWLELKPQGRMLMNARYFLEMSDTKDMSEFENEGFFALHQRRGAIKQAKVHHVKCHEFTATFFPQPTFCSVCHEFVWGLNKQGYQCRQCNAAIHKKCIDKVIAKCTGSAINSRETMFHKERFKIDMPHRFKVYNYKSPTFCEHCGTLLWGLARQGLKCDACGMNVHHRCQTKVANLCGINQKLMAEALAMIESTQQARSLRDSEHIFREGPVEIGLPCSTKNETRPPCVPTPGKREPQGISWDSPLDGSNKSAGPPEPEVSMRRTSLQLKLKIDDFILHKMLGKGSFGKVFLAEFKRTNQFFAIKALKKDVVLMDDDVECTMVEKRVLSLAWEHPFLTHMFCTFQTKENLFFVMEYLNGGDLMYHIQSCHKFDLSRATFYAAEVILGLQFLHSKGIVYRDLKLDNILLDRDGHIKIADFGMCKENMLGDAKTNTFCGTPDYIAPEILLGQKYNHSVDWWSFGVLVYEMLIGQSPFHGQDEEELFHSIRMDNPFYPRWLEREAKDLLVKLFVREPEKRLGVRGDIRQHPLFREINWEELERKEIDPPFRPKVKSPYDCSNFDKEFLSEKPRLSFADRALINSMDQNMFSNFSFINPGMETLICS
UniProt Q99JP0: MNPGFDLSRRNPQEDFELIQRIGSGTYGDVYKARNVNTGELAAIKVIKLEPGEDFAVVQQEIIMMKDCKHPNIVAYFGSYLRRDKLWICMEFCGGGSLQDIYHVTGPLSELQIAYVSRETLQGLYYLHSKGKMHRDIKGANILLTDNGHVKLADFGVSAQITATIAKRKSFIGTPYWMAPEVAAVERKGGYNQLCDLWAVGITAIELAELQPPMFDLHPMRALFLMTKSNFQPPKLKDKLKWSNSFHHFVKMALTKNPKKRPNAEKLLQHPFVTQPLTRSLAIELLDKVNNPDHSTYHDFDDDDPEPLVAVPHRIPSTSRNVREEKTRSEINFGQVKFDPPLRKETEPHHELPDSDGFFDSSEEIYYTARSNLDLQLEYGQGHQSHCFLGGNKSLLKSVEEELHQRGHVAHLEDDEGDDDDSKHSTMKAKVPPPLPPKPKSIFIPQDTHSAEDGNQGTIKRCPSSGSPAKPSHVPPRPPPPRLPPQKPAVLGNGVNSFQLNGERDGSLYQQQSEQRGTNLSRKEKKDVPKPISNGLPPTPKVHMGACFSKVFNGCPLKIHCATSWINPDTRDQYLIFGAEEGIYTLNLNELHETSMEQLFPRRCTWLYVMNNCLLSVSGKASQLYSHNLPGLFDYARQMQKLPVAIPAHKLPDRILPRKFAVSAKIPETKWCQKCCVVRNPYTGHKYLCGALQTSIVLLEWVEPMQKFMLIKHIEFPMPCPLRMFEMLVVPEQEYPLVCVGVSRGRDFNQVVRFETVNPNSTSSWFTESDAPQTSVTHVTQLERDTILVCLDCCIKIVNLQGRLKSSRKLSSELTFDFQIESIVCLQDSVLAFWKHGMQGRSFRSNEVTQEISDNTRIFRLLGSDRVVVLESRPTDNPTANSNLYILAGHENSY

Assays:
[1] = molecular target: endogenous PKC-θ in mouse primary T cells (mouse) (UniProt Q02111); assay: co-immunoprecipitation from lysates of mouse primary T cells after CD3 stimulation (FIG. 1b)
[2] = molecular target: T1, endogenous SLP-76 in mouse primary T cells (mouse) (UniProt Q60787); assay: co-immunoprecipitation from lysates of mouse primary T cells after CD3 stimulation (FIG. 2a)
T1 sequence (looked up): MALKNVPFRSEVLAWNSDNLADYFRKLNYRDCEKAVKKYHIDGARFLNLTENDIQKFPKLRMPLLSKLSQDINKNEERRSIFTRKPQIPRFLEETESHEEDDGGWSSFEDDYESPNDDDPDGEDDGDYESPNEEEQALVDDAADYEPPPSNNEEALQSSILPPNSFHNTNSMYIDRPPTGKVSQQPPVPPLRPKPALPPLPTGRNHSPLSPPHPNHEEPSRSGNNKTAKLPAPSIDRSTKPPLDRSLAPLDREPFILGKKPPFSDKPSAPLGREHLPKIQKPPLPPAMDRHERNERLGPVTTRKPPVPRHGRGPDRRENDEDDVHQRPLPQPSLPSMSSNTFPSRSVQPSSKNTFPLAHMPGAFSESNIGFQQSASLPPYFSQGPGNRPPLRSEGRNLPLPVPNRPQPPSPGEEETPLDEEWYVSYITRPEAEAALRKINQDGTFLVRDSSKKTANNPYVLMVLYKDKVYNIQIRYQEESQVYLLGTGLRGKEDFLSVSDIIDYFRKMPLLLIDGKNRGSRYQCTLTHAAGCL

[3] = molecular target: endogenous PKC-θ in mouse primary T cells (mouse) (UniProt Q02111); assay: co-immunoprecipitation time course, mouse primary T cells after CD3 stimulation (FIG. 2a)

Measured: binding

endogenous GLK in mouse primary T cells (from UniProt Q99JP0 1-894) (enzyme)
binds: [1] | [2] | [3]
